These are yes or no findings as the source states them, for the method shown. Some binding calls cover weakened binding; strength is not graded here.
T1: FANCL (human) (UniProt Q9NW38)
T1 sequence: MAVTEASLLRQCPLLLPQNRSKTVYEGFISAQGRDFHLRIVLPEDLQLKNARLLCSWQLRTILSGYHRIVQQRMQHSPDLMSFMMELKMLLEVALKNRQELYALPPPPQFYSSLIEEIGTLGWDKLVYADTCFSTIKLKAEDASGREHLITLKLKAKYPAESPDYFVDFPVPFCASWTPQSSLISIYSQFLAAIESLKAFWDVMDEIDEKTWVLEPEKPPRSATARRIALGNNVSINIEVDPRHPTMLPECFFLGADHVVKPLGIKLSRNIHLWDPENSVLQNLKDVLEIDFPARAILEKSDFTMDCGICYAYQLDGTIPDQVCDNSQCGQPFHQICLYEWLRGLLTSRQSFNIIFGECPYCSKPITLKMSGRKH

The chains behind the UniProt entries cited, without tags or fusion partners.
UniProt Q9BXW9: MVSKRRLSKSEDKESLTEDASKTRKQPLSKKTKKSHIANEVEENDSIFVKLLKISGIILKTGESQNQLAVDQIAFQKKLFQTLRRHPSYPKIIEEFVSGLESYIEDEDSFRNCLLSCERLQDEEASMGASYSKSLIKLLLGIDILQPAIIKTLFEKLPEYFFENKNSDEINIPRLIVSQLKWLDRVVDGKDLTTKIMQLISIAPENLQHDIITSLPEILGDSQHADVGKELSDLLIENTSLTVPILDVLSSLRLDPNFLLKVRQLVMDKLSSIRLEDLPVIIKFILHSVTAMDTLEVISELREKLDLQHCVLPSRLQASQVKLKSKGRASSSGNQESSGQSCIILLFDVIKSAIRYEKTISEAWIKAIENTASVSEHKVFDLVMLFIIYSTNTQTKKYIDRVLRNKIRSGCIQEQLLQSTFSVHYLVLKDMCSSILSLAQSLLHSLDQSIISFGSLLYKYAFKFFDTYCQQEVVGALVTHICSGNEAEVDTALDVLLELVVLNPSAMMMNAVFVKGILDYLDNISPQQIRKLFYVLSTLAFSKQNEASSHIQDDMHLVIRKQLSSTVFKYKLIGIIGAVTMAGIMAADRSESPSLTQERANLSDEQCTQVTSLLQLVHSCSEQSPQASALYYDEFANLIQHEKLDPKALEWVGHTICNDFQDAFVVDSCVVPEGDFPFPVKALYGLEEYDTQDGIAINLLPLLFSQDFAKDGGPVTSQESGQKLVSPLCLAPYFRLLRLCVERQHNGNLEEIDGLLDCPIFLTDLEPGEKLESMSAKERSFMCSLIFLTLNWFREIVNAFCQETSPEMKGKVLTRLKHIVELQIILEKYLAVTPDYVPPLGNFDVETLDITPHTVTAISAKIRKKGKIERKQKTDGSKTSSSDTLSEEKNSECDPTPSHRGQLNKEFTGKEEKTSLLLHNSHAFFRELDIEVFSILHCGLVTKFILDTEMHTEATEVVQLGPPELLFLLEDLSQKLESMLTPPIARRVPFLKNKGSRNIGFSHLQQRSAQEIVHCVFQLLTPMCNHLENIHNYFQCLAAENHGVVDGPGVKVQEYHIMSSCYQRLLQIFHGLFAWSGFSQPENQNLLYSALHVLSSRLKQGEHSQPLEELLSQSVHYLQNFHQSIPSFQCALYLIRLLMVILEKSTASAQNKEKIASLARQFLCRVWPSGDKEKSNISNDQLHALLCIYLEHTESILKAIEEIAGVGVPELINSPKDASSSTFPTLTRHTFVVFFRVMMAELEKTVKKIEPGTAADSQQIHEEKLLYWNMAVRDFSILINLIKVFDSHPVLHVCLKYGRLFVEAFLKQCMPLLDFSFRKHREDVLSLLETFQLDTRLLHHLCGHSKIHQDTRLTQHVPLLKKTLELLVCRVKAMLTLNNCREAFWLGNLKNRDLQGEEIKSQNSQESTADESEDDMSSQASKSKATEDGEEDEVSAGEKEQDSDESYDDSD

T2: FANCE (human, UniProt Q9HB96 1-536)
T2 sequence: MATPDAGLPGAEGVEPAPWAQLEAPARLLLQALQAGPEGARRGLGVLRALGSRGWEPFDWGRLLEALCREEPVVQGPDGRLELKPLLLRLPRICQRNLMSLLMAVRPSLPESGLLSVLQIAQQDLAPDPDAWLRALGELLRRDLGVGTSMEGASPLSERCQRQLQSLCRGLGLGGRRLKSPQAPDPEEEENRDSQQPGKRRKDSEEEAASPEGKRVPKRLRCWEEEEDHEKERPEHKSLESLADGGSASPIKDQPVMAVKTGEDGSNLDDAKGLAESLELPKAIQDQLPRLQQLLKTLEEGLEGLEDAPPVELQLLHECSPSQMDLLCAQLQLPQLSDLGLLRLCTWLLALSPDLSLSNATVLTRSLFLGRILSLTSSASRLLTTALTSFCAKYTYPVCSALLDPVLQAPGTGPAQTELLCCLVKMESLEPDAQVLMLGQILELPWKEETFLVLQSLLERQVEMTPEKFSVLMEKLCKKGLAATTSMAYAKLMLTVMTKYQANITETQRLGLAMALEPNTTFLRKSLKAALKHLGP

T3: FAAP100 (human), Q0VG06
T3 chain: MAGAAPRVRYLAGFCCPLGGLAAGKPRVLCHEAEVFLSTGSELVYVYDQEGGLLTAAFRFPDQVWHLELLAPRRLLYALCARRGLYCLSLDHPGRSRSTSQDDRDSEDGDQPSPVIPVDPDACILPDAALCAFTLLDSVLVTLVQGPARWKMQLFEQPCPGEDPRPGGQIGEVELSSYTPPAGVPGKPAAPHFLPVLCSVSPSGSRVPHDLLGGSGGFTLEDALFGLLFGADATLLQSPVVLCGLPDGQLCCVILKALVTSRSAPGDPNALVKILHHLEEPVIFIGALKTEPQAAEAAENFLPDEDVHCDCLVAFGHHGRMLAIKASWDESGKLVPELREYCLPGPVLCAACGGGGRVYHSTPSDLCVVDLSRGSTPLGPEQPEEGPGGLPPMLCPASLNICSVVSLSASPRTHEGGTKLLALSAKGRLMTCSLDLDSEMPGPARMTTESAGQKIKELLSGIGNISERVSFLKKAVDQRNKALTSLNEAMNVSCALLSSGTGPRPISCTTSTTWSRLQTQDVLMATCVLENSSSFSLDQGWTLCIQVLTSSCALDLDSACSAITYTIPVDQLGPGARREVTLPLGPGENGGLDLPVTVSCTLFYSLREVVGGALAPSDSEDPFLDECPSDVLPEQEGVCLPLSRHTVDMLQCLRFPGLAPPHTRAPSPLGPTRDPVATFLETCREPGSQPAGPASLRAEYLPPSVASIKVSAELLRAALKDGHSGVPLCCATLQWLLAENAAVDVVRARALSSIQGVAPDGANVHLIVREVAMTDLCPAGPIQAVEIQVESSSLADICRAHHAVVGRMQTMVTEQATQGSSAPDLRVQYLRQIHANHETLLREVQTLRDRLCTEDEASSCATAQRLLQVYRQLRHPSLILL

B1: FAAP100 (natural protein)
chain: T3 chain

Experiments:
Test in all cases: cryo-EM structure
FANCL (human) = target: T1, FANCL (human)
FANCE = target: T2, FANCE
FAAP100 (human), Q0VG06 = target: T3, FAAP100 (human), Q0VG06; conditions: remark: other sources report otherwise

| Molecule | binding (FANCL (human)) | binding (FANCE) | binding (FAAP100 (human), Q0VG06) |
| --- | --- | --- | --- |
| FANCD2 (from UniProt Q9BXW9 1-1451) | binds | binds |  |
| B1 |  |  | binds |

— article doi:10.1101/854158 (bioRxiv, 2019)
